{
  "sequences": {"note": "The chains behind the UniProt entries cited, without tags or fusion partners. Residues count along the entry.", "UniProt P42224, 1-746 E411A": "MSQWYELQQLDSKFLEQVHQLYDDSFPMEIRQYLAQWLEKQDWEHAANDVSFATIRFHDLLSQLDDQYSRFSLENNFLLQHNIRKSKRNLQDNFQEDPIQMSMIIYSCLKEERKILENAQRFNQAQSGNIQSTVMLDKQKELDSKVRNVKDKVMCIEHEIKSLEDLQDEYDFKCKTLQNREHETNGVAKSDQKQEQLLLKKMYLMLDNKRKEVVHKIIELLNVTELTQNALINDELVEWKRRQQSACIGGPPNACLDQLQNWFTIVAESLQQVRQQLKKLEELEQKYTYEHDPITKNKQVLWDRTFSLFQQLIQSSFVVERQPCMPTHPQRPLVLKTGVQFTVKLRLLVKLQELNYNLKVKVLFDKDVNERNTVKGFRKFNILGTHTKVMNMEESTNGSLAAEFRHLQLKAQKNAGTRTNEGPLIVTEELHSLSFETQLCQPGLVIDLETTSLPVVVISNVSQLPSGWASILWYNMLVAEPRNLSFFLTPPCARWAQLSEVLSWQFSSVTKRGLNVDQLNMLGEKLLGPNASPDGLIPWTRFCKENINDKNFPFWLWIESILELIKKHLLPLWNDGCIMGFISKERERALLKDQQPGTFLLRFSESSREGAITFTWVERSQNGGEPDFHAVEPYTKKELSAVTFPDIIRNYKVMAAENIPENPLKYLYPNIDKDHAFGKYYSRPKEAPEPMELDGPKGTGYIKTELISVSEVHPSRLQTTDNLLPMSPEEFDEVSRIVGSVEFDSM", "UniProt P42224, 1-746": "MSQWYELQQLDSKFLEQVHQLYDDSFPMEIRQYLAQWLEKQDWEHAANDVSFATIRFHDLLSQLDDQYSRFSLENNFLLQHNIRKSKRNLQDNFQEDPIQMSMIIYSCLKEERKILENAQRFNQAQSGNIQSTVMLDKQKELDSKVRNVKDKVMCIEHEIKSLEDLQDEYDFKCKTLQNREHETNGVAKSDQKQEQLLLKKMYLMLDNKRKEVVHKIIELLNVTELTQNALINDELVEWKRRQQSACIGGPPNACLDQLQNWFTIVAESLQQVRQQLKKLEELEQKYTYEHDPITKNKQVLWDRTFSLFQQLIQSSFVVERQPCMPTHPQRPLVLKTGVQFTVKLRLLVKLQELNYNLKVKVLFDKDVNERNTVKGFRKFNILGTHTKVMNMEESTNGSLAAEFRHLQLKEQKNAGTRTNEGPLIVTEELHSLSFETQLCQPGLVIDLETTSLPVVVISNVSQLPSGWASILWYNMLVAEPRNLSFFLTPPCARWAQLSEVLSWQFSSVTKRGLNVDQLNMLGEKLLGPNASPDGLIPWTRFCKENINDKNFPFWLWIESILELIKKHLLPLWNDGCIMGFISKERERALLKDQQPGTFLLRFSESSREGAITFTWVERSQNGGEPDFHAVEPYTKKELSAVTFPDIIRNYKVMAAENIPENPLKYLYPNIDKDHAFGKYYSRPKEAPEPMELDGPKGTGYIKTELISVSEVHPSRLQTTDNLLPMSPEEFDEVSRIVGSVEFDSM", "UniProt P42224, 1-746 E421K": "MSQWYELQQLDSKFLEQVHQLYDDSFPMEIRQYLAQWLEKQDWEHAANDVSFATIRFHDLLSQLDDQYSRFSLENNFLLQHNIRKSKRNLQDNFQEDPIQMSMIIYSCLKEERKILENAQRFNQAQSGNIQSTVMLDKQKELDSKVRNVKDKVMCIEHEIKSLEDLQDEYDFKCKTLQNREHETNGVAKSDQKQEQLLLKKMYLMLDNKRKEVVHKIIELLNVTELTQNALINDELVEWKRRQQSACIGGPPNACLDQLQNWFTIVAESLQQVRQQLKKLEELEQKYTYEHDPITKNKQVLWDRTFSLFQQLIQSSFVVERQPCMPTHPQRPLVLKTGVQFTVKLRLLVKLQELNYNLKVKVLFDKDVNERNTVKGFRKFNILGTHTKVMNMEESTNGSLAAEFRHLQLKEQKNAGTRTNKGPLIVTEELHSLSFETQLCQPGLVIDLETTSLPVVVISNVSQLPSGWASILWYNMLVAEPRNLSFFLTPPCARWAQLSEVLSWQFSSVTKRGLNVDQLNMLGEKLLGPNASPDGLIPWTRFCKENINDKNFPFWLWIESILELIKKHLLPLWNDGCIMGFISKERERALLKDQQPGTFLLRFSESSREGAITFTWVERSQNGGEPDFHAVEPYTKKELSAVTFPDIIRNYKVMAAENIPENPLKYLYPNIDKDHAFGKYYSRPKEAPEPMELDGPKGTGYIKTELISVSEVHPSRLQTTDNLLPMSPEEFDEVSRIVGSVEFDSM"},
  "source": "paper PMC3507856",
  "assay_in_all_cases": "EMSA",
  "key": {"[1]": {"target": "STAT1-E411A-GFP (IFNg-activated) (Homo sapiens) (UniProt P42224)", "conditions": "GFP homodimer band, prolonged binding under staurosporine; 4 ul whole cell extract (0.2% NP40/10 mM KCl and 420 mM KCl extraction buffers, 1 mM EDTA, 20 mM Hepes pH 7.4, vanadate, NaF, protease inhibitors) with 1 ng 32P duplex; protein in an extract; residues 1-746; protein details: C-terminal GFP; label: 32P (Klenow end fill-in)"}, "[2]": {"test_system": "STAT1-WT-GFP (IFNg-activated) + native STAT1 of HeLa cells (IFNg-activated)", "conditions": "heterodimer of GFP-tagged and native STAT1; 4 ul whole cell extract (0.2% NP40/10 mM KCl and 420 mM KCl extraction buffers, 1 mM EDTA, 20 mM Hepes pH 7.4, vanadate, NaF, protease inhibitors) with 1 ng 32P duplex; protein in an extract; protein details: C-terminal GFP; label: 32P (Klenow end fill-in)"}, "[3]": {"target": "STAT1 wild-type (IFNg-activated, pTyr701) (Homo sapiens) (UniProt P42224)", "conditions": "4 ul whole cell extract (0.2% NP40/10 mM KCl and 420 mM KCl extraction buffers, 1 mM EDTA, 20 mM Hepes pH 7.4, vanadate, NaF, protease inhibitors) with 1 ng 32P duplex, protein in an extract, residues 1-746, label: 32P (Klenow end fill-in)"}, "[4]": {"target": "STAT1-WT-GFP (IFNg-activated) (Homo sapiens) (UniProt P42224)", "conditions": "GFP homodimer band; 4 ul whole cell extract (0.2% NP40/10 mM KCl and 420 mM KCl extraction buffers, 1 mM EDTA, 20 mM Hepes pH 7.4, vanadate, NaF, protease inhibitors) with 1 ng 32P duplex; protein in an extract; residues 1-746; protein details: C-terminal GFP; label: 32P (Klenow end fill-in)"}, "[5]": {"test_system": "STAT1-E411A-GFP (IFNg-activated) + native STAT1 of HeLa cells (IFNg-activated)", "conditions": "heterodimer of GFP-tagged and native STAT1; 4 ul whole cell extract (0.2% NP40/10 mM KCl and 420 mM KCl extraction buffers, 1 mM EDTA, 20 mM Hepes pH 7.4, vanadate, NaF, protease inhibitors) with 1 ng 32P duplex; protein in an extract; protein details: C-terminal GFP; label: 32P (Klenow end fill-in)"}, "[6]": {"target": "native STAT1 of HeLa cells (IFNg-activated) (UniProt P42224)", "conditions": "native homodimer band; 4 ul whole cell extract (0.2% NP40/10 mM KCl and 420 mM KCl extraction buffers, 1 mM EDTA, 20 mM Hepes pH 7.4, vanadate, NaF, protease inhibitors) with 1 ng 32P duplex; protein in an extract; label: 32P (Klenow end fill-in)"}, "[7]": {"target": "STAT1-E411A (IFNg-activated, pTyr701) (Homo sapiens) (UniProt P42224)", "conditions": "4 ul whole cell extract (0.2% NP40/10 mM KCl and 420 mM KCl extraction buffers, 1 mM EDTA, 20 mM Hepes pH 7.4, vanadate, NaF, protease inhibitors) with 1 ng 32P duplex, protein in an extract, residues 1-746, label: 32P (Klenow end fill-in)"}, "[8]": {"target": "STAT1-E421K (IFNg-activated, pTyr701) (Homo sapiens) (UniProt P42224)", "conditions": "slower dissociation than WT on 750x unlabeled M67 challenge; 4 ul whole cell extract (0.2% NP40/10 mM KCl and 420 mM KCl extraction buffers, 1 mM EDTA, 20 mM Hepes pH 7.4, vanadate, NaF, protease inhibitors) with 1 ng 32P duplex; protein in an extract; residues 1-746; label: 32P (Klenow end fill-in)"}, "[9]": {"conditions": "dimer and tetramer complexes, tetramer resists 750x M67"}},
  "note": "Where cells or extracts were used, other partners may take part. For some assays here: Negatives hold for the conditions tested. For at least one entry, the source does not settle the construct or the ends of the probe. For some assays here: A weaker result is weaker than the reference pair of the same experiment. For some assays here: At least one verdict was read from the data and is not stated in words by the source.",
  "data": [
    {"sequence": "CGACATTTCCCGTAAATCTG (double strand) [M67]", "values": [
      {"measurement": "binding result", "setting": "[1]", "value": "binds"},
      {"measurement": "binding result", "setting": "[2]", "value": "binds"},
      {"measurement": "binding result", "setting": "[3]; faster dissociation than mutants on 750x unlabeled M67 challenge", "value": "binds"},
      {"measurement": "binding result", "setting": "[4]", "value": "binds"},
      {"measurement": "binding result", "setting": "[5]", "value": "binds"},
      {"measurement": "binding result", "setting": "[6]", "value": "binds"},
      {"measurement": "binding result", "setting": "[7]; slower dissociation than WT on 750x unlabeled M67 challenge", "value": "binds"},
      {"measurement": "binding result", "setting": "[8]", "value": "binds"}
    ]},
    {"sequence": "CGTTTACCCCAAATTGACGGATTTACCCCAAC (double strand) [2x nonGAS]", "values": [
      {"measurement": "binding result", "setting": "[3]", "value": "no binding"},
      {"measurement": "binding result", "setting": "[7]", "value": "binds more weakly"}
    ]},
    {"sequence": "CGTTTCCCCGAAATTGACGGATTTACCCCAAC (double strand) [GAS-nonGAS]", "values": [
      {"measurement": "binding result", "setting": "[3]", "value": "binds"},
      {"measurement": "binding result", "setting": "[7]", "value": "binds"}
    ]},
    {"sequence": "CGTTTCCCCGAAATTGACGGATTTCCCCGAAAC (double strand) [2x GAS]", "values": [
      {"measurement": "binding result", "setting": "[3]; [9]", "value": "binds"},
      {"measurement": "binding result", "setting": "[7]; [9]", "value": "binds"}
    ]}
  ]
}
